The structures appear in SMILES notation. A value given as a limit tells only on which side of the number the result lay.

Consider 9 compounds from patent US11542257B2, “Arylnaphthalene compounds as vacuolar-ATPase inhibitors and the use thereof” (priority 2018, dated 2023).

The test system of series [1] is endosomal acidification in A549 cells. In words: Inhibition of cellular endosomal acidification, acridine orange (AO), A549 cells. Type of series: cell-based. As to conditions: cytotoxicity CC50 vs endosomal acidification IC50.
In series [2] the test system is endosomal acidification in HEK293 cells. Type of series: cell-based.

Turning to `COc1cc2c(O)c3c(c(-c4ccc5c(c4)OCO5)c2cc1OC)C(=O)OC3` [Compound 2a, 9-(benzo[d][1,3]dioxol-5-yl)-4-hydroxy-6,7-dimethoxynaphtho[2,3-c]furan-1(3H)-one, reference compound], in series [1], the “A549 SI” value turned out to be 336. For the compound `CCOc1c2c(c(-c3ccc4c(c3)OCO4)c3cc(OC)c(OC)cc13)C(=O)OC2` [Compound 2c, 9-(benzo[d][1,3]dioxol-5-yl)-4-ethoxy-6,7-dimethoxynaphtho[2,3-c]furan-1(3H)-one], the “fold less potent in HEK 293 cells than in A549 cells (endosomal acidification)” value in series [2] is listed as “roughly 4 fold”. Further, the “A549 SI” value in series [1] is given as above 1480. Take `COc1cc2c(OCCCN3CCOCC3)c3c(c(-c4ccc5c(c4)OCO5)c2cc1OC)C(=O)OC3` [Compound 2g, 9-(benzo[d][1,3]dioxol-5-yl)-6,7-dimethoxy-4-(3-morpholinopropoxy)naphtho[2,3-c]furan-1(3H)-one]: in series [1], the “A549 SI” value was above 1780.

`COc1cc2c(OC)c3c(c(-c4ccc5c(c4)OCO5)c2cc1OC)C(=O)OC3` [Compound 2b, 9-(benzo[d][1,3]dioxol-5-yl)-4,6,7-trimethoxynaphtho[2,3-c]furan-1(3H)-one]: the “fold less potent in HEK 293 cells than in A549 cells (endosomal acidification)” value in series [2] is “roughly 4 fold”. Besides, the “A549 SI” value in series [1] is above 1720. For the compound `C#CCCCOc1c2c(c(-c3ccc4c(c3)OCO4)c3cc(OC)c(OC)cc13)C(=O)OC2` [Compound 2e, 9-(benzo[d][1,3]dioxol-5-yl)-6,7-dimethoxy-4-(pent-4-yn-1-yloxy)naphtho[2,3-c]furan-1(3H)-one], in series [1], the “A549 SI” value is given as above 1180. Take `COc1cc2c(O)c3c(c(-c4ccc5c(c4)OCO5)c2cc1OC)C(=O)N(/N=C/c1ccc(Cl)cc1)C3` [Compound 3d, (E)-9-(benzo[d][1,3]dioxol-5-yl)-2-((4-chlorobenzylidene)amino)-4-hydroxy-6,7-dimethoxy-2,3-dihydro-1H-benzo[f]isoindol-1-one]: the “fold less potent than diphyllin (endosomal acidification)” value (shortened to “fold less potent than diphyllin”) in series [2] came out at 18 fold. Besides, the “A549 SI” value in series [1] came out at 9.24. `COc1cc2c(O)c3c(c(-c4ccc5c(c4)OCO5)c2cc1OC)C(=O)N(N)C3` [Compound 3a, 2-amino-9-(benzo[d][1,3]dioxol-5-yl)-4-hydroxy-6,7-dimethoxy-2,3-dihydro-1H-benzo[f]isoindol-1-one]: in series [2], the “fold less potent than diphyllin” value amounted to 18 fold. The “A549 SI” value in series [1] is on record as 3.40. As to `CCOC(=O)CN1CCN(CCCOc2c3c(c(-c4ccc5c(c4)OCO5)c4cc(OC)c(OC)cc24)C(=O)OC3)CC1` [Compound 2h, ethyl 2-(4-(3-((9-(benzo[d][1,3]dioxol-5-yl)-6,7-dimethoxy-1-oxo-1,3-dihydronaphtho[2,3-c]furan-4-yl)oxy)propyl)piperazin-1-yl)acetate], the “A549 SI” value in series [1] is above 990. Take `COc1cc2c(O)c3c(c(-c4ccc5c(c4)OCO5)c2cc1OC)C(=O)N(/N=C/c1cccnc1)C3` [Compound 3c, (E)-9-(benzo[d][1,3]dioxol-5-yl)-4-hydroxy-6,7-dimethoxy-2-((pyridin-3-ylmethylene)amino)-2,3-dihydro-1H-benzo[f]isoindol-1-one]: the “fold less potent than diphyllin” value in series [2] is given as 18 fold. For the same compound, in series [1], the “A549 SI” value is on record as 4.32.
